Patent publication US5589337A (priority 1995, dated 1996)
Counter-ions that a name gives are not always drawn.

Columns and labels:
topA promoter = experiment: topA promoter-lacZ induction (preferred kit, β-galactosidase); conditions: Escherichia coli, read-out: Fold Induction, topA
zwf promoter = experiment: zwf promoter-lacZ induction (preferred kit, β-galactosidase); conditions: Escherichia coli, read-out: Fold Induction, zwf
aniG promoter = experiment: aniG promoter-lacZ induction (preferred kit, β-galactosidase); conditions: Salmonella enterica, read-out: Fold Induction, aniG

CN(C)CCN(Cc1cccs1)c1ccccn1 [Methapyrilene HCl]
fold induction at 2000 µg/mL (topA promoter): 1.5 | fold induction at 2000 µg/mL (zwf promoter): 2.7 | fold induction at 400 µg/mL (aniG promoter): 2.3
